The source of these data is the supplement of paper PMC11732987, “Enantioselective OTUD7B fragment discovery through chemoproteomics screening and high-throughput optimisation” (Communications Chemistry, 2025).

The list shows a part of the results. The data scatter; read single values as rough.

Compound in the first assay: ClCC(=O)N[C@H]1CCCc2ccccc12
Description: log2 mean competition ratio of IA-DTB cysteine labelling (DMSO/compound) (log2 ratio); higher = stronger cysteine engagement by compound. The following applies: 50 µM; treatment time: 4 h; cell line lysate: HEK293T. On the procedure: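 IA-DTB competitive cysteine chemoproteomics in HEK293T RIPA lysate. Lysates were treated with compound 29 or 30 at 50 or 200 µM for 4 h, then IA-DTB (500 µM, 1 h), trypsin-digested, NeutrAvidin-enriched and analysed by diaPASEF. Competition ratio = intensity DMSO / intensity compound (n=4 treated, n=64 DMSO); binding: mean log2 CR ≥ 1 and p ≤ 0.05 plus QC filters. Target is the cysteine site.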
CZIB C102 (UniProt Q9NWV4): the “log2 mean competition ratio” value is -0.654.

For DCAF1 C106 (UniProt Q9Y4B6), the “log2 mean competition ratio” value amounted to 0.13.

As to CTTNBP2 C1595, the “log2 mean competition ratio” value is -0.301.

With DDX5 C234 (UniProt P17844), the “log2 mean competition ratio” value turned out to be 0.0447.

For CRYL1 C182 (UniProt Q9Y2S2), the “log2 mean competition ratio” value is -0.249.

In the case of CTNNB1 C520 (UniProt P35222), the “log2 mean competition ratio” value stood at 0.0446.

Consider CSK C411 (UniProt P41240), for which the “log2 mean competition ratio” value was -0.147.

Consider DCP2 C158 (UniProt Q8IU60), for which the “log2 mean competition ratio” value was -0.0755.

As to CRBN C310 (UniProt Q96SW2), the “log2 mean competition ratio” value is -0.224.

For the target CRYBG3 C439 (UniProt Q68DQ2), the “log2 mean competition ratio” value amounted to 0.146.

Take CSNK1G2 C54 (UniProt P78368): the “log2 mean competition ratio” value was -0.392.

Turning to CTSC C448 (UniProt P53634), the “log2 mean competition ratio” value is -0.275.

For DAXX C720 (UniProt Q9UER7), the “log2 mean competition ratio” value turned out to be 0.204.

Consider DDX39B C165, for which the “log2 mean competition ratio” value stood at 0.0819.

Turning to DCTN6 C18 (UniProt O00399), the “log2 mean competition ratio” value is -0.178.

Take DDX39A C197 (UniProt O00148): the “log2 mean competition ratio” value is -0.424.

As for CTU2 C47 (UniProt Q2VPK5), the “log2 mean competition ratio” value was -0.218.

With CUL5 C188 (UniProt Q93034), the “log2 mean competition ratio” value was found to be 0.0512.

Regarding CTTNBP2NL C76 (UniProt Q9P2B4), the “log2 mean competition ratio” value is -0.476.

Regarding CSE1L C85 (UniProt P55060), the “log2 mean competition ratio” value is -0.583.

Staying with this assay, now noted: 200 µM; treatment time: 4 h; cell line lysate: HEK293T.
On to CZIB C102 (UniProt Q9NWV4), for which the “log2 mean competition ratio” value was -0.135.

DCAF1 C106 (UniProt Q9Y4B6): the “log2 mean competition ratio” value is 0.276.

Consider CTTNBP2 C1595, for which the “log2 mean competition ratio” value is -0.231.

Regarding DDX5 C234 (UniProt P17844), the “log2 mean competition ratio” value worked out at 0.0284.

CRYL1 C182 (UniProt Q9Y2S2): the “log2 mean competition ratio” value is -0.0517.

CTNNB1 C520 (UniProt P35222): the “log2 mean competition ratio” value is 0.0626.

For CSK C411 (UniProt P41240), the “log2 mean competition ratio” value is -0.0187.

Take DCP2 C158 (UniProt Q8IU60): the “log2 mean competition ratio” value is -0.207.

Regarding CRBN C310 (UniProt Q96SW2), the “log2 mean competition ratio” value came out at 0.0935.

As to CRYBG3 C439 (UniProt Q68DQ2), the “log2 mean competition ratio” value was -0.326.

Turning to CSNK1G2 C54 (UniProt P78368), the “log2 mean competition ratio” value is -0.115.

Turning to CTSC C448 (UniProt P53634), the “log2 mean competition ratio” value is -0.216.

Consider DAXX C720 (UniProt Q9UER7), for which the “log2 mean competition ratio” value stood at 0.0456.

Turning to DDX39B C165, the “log2 mean competition ratio” value was -0.338.

Consider DCTN6 C18 (UniProt O00399), for which the “log2 mean competition ratio” value turned out to be 0.201.

Take DDX39A C197 (UniProt O00148): the “log2 mean competition ratio” value was 0.146.

For CTU2 C47 (UniProt Q2VPK5), the “log2 mean competition ratio” value was found to be 0.142.

Consider CUL5 C188 (UniProt Q93034), for which the “log2 mean competition ratio” value was -0.29.

Consider CTTNBP2NL C76 (UniProt Q9P2B4), for which the “log2 mean competition ratio” value was 0.211.

In the case of CSE1L C85 (UniProt P55060), the “log2 mean competition ratio” value was -0.0904.
